These results are taken from publication PMC5920110.

By UniProt entry, the sequences of proteins in these tests, tags left out.
UniProt Q14680: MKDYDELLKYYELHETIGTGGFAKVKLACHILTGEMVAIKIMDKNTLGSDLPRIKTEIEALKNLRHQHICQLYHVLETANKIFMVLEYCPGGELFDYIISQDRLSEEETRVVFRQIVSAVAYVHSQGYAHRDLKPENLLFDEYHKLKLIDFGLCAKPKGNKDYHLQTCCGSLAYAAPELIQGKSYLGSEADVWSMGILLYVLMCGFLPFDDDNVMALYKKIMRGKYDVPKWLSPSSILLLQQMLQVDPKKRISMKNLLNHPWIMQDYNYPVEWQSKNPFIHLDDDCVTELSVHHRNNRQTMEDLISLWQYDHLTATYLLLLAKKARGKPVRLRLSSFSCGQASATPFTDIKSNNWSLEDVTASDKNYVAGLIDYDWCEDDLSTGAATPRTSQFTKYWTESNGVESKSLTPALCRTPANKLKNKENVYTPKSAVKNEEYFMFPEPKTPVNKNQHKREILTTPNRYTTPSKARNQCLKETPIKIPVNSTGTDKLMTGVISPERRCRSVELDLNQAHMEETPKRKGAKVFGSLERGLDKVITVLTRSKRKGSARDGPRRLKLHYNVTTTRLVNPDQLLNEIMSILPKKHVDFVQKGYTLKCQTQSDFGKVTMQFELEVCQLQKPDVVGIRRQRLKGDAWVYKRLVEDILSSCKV
UniProt Q00987: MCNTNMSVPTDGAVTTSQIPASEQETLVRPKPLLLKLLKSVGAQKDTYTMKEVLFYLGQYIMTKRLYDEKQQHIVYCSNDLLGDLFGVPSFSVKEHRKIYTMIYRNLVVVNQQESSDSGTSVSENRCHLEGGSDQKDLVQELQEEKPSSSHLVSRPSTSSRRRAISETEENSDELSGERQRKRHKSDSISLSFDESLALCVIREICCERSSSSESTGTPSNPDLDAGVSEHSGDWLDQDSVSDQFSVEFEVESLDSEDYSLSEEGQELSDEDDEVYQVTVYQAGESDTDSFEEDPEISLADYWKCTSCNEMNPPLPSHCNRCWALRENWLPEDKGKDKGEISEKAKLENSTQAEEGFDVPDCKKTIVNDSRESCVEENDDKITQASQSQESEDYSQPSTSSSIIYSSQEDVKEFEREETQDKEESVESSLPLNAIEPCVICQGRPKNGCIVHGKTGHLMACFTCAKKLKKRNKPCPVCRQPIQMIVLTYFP

Assay [1] deals with murine protein serine-threonine kinase 38 (MPK38)/maternal embryonic leucine zipper kinase (MELK) (human (endogenous in HEK293)) (UniProt Q14680). The assay can be described thus: co-IP; HEK293 cell lysates, immunoprecipitation with an anti-MPK38 antibody, immunoblot with anti-Mdm2, anti-Trx or anti-ZPR9 antibodies (endogenous complexes); cells transfected with FLAG- or GST-tagged wild-type or mutant Smads2/3/4/7 or Smad-specific siRNAs. For orientation: In western blotting, separated proteins are transferred to a membrane and probed.

Assay [2] shares this target. Described as above. This is another data set of the same source.

Where two headings read alike, the source gives them in different places. No constants are given. Whether binding was seen depends on the method and setting. Binding seen in cells or lysates may run through a third protein. Some entries that bind do so weakly or less than the wild type.

With Mdm2 (from UniProt Q00987 1-491), the binding result in assay [1] was “binds”.

B1: thioredoxin (Trx) (protein, UniProt P10599 1-105)
chain: MVKQIESKTAFQEALDAAGDKLVVVDFSATWCGPCKMIKPFFHSLSEKYSNVIFLEVDVDDCQDVASECEVKCMPTFQFFKKGQKVGEFSGANKEKLEATINELV
In the case of B1, the binding result in assay [2] was “binds”.

B2: zinc-finger-like protein 9 (ZPR9) (protein, UniProt Q969S3 1-477)
chain: MATYTCITCRVAFRDADMQRAHYKTDWHRYNLRRKVASMAPVTAEGFQERVRAQRAVAEEESKGSATYCTVCSKKFASFNAYENHLKSRRHVELEKKAVQAVNRKVEMMNEKNLEKGLGVDSVDKDAMNAAIQQAIKAQPSMSPKKAPPAPAKEARNVVAVGTGGRGTHDRDPSEKPPRLQWFEQQAKKLAKQQEEDSEEEEEDLDGDDWEDIDSDEELECEDTEAMDDVVEQDAEEEEAEEGPPLGAIPITDCLFCSHHSSSLMKNVAHMTKDHSFFIPDIEYLSDIKGLIKYLGEKVGVGKICLWCNEKGKSFYSTEAVQAHMNDKSHCKLFTDGDAALEFADFYDFRSSYPDHKEGEDPNKAEELPSEKNLEYDDETMELILPSGARVGHRSLMRYYKQRFGLSRAVAVAKNRKAVGRVLQQYRALGWTGSTGAALMRERDMQYVQRMKSKWMLKTGMKNNATKQMHFRVQVRF
Take B2: the binding result in assay [2] is “binds”.
